No constants are given. Whether binding was seen depends on the method and setting. Some results given as binding are weak or reduced against the parent protein; the word gives no strength.
Biological target: T1, wild-type rat TRPV2 (rat), Q9WUD2
T1 chain: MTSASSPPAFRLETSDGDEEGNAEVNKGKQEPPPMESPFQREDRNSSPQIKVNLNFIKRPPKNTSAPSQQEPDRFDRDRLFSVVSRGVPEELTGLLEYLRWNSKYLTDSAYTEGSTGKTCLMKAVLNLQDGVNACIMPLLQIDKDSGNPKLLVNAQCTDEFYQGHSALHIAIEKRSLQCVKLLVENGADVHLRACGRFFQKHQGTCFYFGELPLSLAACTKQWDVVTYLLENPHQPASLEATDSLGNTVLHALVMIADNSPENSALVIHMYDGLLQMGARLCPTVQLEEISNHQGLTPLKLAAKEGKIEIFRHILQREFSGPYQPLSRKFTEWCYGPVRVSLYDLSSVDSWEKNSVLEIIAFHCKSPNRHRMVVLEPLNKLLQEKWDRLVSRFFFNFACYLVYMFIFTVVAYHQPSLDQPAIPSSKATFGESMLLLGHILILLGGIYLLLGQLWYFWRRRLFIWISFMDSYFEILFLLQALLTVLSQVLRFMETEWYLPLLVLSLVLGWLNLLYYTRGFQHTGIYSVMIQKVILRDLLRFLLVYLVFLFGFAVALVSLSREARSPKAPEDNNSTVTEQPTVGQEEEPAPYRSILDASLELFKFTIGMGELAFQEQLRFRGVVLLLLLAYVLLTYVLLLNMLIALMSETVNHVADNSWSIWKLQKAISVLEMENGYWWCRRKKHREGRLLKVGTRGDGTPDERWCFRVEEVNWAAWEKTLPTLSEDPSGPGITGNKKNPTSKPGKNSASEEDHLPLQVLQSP
Experiment: cryo-EM structure; channel tetramer in MSP2N2/soy polar lipid nanodiscs, 20 mM Hepes pH 8.0, 150 mM NaCl, 2 mM TCEP; with 1 mM ruthenium red, with or without activator (1 mM 2-APB for TRPV2; 400 uM diC8-PI(4,5)P2 for TRPV5); both purified
Settings: remark: other sources report otherwise

B1: wild-type rat TRPV2, Q9WUD2 1-761 (protein)
chain: MTSASSPPAFRLETSDGDEEGNAEVNKGKQEPPPMESPFQREDRNSSPQIKVNLNFIKRPPKNTSAPSQQEPDRFDRDRLFSVVSRGVPEELTGLLEYLRWNSKYLTDSAYTEGSTGKTCLMKAVLNLQDGVNACIMPLLQIDKDSGNPKLLVNAQCTDEFYQGHSALHIAIEKRSLQCVKLLVENGADVHLRACGRFFQKHQGTCFYFGELPLSLAACTKQWDVVTYLLENPHQPASLEATDSLGNTVLHALVMIADNSPENSALVIHMYDGLLQMGARLCPTVQLEEISNHQGLTPLKLAAKEGKIEIFRHILQREFSGPYQPLSRKFTEWCYGPVRVSLYDLSSVDSWEKNSVLEIIAFHCKSPNRHRMVVLEPLNKLLQEKWDRLVSRFFFNFACYLVYMFIFTVVAYHQPSLDQPAIPSSKATFGESMLLLGHILILLGGIYLLLGQLWYFWRRRLFIWISFMDSYFEILFLLQALLTVLSQVLRFMETEWYLPLLVLSLVLGWLNLLYYTRGFQHTGIYSVMIQKVILRDLLRFLLVYLVFLFGFAVALVSLSREARSPKAPEDNNSTVTEQPTVGQEEEPAPYRSILDASLELFKFTIGMGELAFQEQLRFRGVVLLLLLAYVLLTYVLLLNMLIALMSETVNHVADNSWSIWKLQKAISVLEMENGYWWCRRKKHREGRLLKVGTRGDGTPDERWCFRVEEVNWAAWEKTLPTLSEDPSGPGITGNKKNPTSKPGKNSASEEDHLPLQVLQSP
Q: With B1 as the binder, how does the binding read?
A: The binding was “binds”.

Reference: PMC10897480, “Molecular details of ruthenium red pore block in TRPV channels” (EMBO Reports, 2024)
